Values from PubChem BioAssay AID1259425 (University of Nebraska Medical Center, 2018).
Shown is a random part of about 14,000 deposited reagents. Further read-outs or replicates are left out here. Reagent sequences are not shown. Not given: the time to read-out.

Purpose: 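Compare each knockdown with KSR1 silencing using changes in marker transcripts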 (primary screen)
Cell system: HCT116 human colon cancer cells
Reagents: siRNA pool against human genes, 50 nM siRNA
Measurement: 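After 50 nM siRNA pool, branched-DNA assay measures six marker transcripts per well, minus blank, normalised to the geometric mean of two housekeeping transcripts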
Scale: BNIP3L mRNA: higher = more BNIP3L transcript after knockdown; NDRG1 mRNA: higher = more NDRG1 transcript after knockdown

After knock-down of ADRA2B (adrenoceptor alpha 2B) the results were BNIP3L mRNA, set 1 = 0.354; NDRG1 mRNA, set 1 = 0.387.
Against KPTN (kaptin, actin binding protein), the values are BNIP3L mRNA, set 1 = 0.161; NDRG1 mRNA, set 1 = 0.158.
Against ZNF16 (zinc finger protein 16), the entry reads BNIP3L mRNA, set 1 = 0.0787; NDRG1 mRNA, set 1 = 0.356.
GRHL1 (grainyhead like transcription factor 1) showed BNIP3L mRNA, set 1 = 0.0455; NDRG1 mRNA, set 1 = 0.146.
After knock-down of RALGPS1 (Ral GEF with PH domain and SH3 binding motif 1) the results were BNIP3L mRNA, set 1 = 0.113; NDRG1 mRNA, set 1 = 0.188.
After knock-down of DNPEP (aspartyl aminopeptidase) the results were BNIP3L mRNA, set 1 = 0.107; NDRG1 mRNA, set 1 = 0.456.
With knock-down of TAF7L (TATA-box binding protein associated factor 7 like), the screen gave BNIP3L mRNA, set 1 = 0.0337; NDRG1 mRNA, set 1 = 0.107.
For PTPN22 (protein tyrosine phosphatase non-receptor type 22) the deposit lists BNIP3L mRNA, set 1 = 0.0563; NDRG1 mRNA, set 1 = 0.145.
RORB (RAR related orphan receptor B) gave BNIP3L mRNA, set 1 = 0.0717; NDRG1 mRNA, set 1 = 0.105.
Knock-down of RBM39 (RNA binding motif protein 39) came out at: BNIP3L mRNA, set 1 = 0.0762; NDRG1 mRNA, set 1 = 0.455.
GABRB2 (gamma-aminobutyric acid type A receptor subunit beta2) scored BNIP3L mRNA, set 1 = 0.0365; NDRG1 mRNA, set 1 = 0.479.
Depletion of MRPS9 (mitochondrial ribosomal protein S9) resulted in: BNIP3L mRNA, set 1 = 0.0513; NDRG1 mRNA, set 1 = 0.148.

3 entries from above, set out differently.
gene	BNIP3L mRNA, set 1	NDRG1 mRNA, set 1
PTPN22 (protein tyrosine phosphatase non-receptor type 22)	0.0563	0.145
RORB (RAR related orphan receptor B)	0.0717	0.105
RBM39 (RNA binding motif protein 39)	0.0762	0.455

The listing continues.
Against TSPO (translocator protein) the deposit lists BNIP3L mRNA, set 1 = 0.147; NDRG1 mRNA, set 1 = 0.31.
With knock-down of CIAO1 (cytosolic iron-sulfur assembly component 1), the screen gave BNIP3L mRNA, set 1 = 0.119; NDRG1 mRNA, set 1 = 0.22.
After knock-down of PRDM15 (PR/SET domain 15), the screen gave BNIP3L mRNA, set 1 = 0.11; NDRG1 mRNA, set 1 = 0.316.
For MYCBP2 (MYC binding protein 2) the deposit lists BNIP3L mRNA, set 1 = 0.0889; NDRG1 mRNA, set 1 = 0.167.
Against ZSCAN18 (zinc finger and SCAN domain containing 18) the deposit lists BNIP3L mRNA, set 1 = 0.138; NDRG1 mRNA, set 1 = 0.317.
Silencing of FGFR1OP2 (FGFR1 oncogene partner 2) gave: BNIP3L mRNA, set 1 = 0.0574; NDRG1 mRNA, set 1 = 0.259.
For GPAM (glycerol-3-phosphate acyltransferase, mitochondrial) the deposit lists BNIP3L mRNA, set 1 = 0.0869; NDRG1 mRNA, set 1 = 0.0658.
With knock-down of COQ9 (coenzyme Q9), the screen gave BNIP3L mRNA, set 1 = 0.277; NDRG1 mRNA, set 1 = 0.131.
Depletion of NECTIN2 (nectin cell adhesion molecule 2) came out at: BNIP3L mRNA, set 1 = 0.0537; NDRG1 mRNA, set 1 = 0.228.
Against USP22 (ubiquitin specific peptidase 22), the values are BNIP3L mRNA, set 1 = 0.106; NDRG1 mRNA, set 1 = 0.407.
GPRASP1 (G protein-coupled receptor associated sorting protein 1) showed BNIP3L mRNA, set 1 = 0.136; NDRG1 mRNA, set 1 = 0.147.
BNC2 (basonuclin zinc finger protein 2) scored BNIP3L mRNA, set 1 = 0.0767; NDRG1 mRNA, set 1 = 0.149.
Knock-down of NR1D1 (nuclear receptor subfamily 1 group D member 1) came out at: BNIP3L mRNA, set 1 = 0.122; NDRG1 mRNA, set 1 = 0.115.
IPO13 (importin 13) gave BNIP3L mRNA, set 1 = 0.128; NDRG1 mRNA, set 1 = 0.213.
Depletion of MRPL51 (mitochondrial ribosomal protein L51) gave: BNIP3L mRNA, set 1 = 0.0945; NDRG1 mRNA, set 1 = 0.138.
With knock-down of CHST9 (carbohydrate sulfotransferase 9) the results were BNIP3L mRNA, set 1 = 0.174; NDRG1 mRNA, set 1 = 0.603.
Silencing of AKR1D1 (aldo-keto reductase family 1 member D1) gave: BNIP3L mRNA, set 1 = 0.386; NDRG1 mRNA, set 1 = 0.23.
For VAPB (VAMP associated protein B and C), the entry reads BNIP3L mRNA, set 1 = 0.235; NDRG1 mRNA, set 1 = 0.146.
After knock-down of PARP6 (poly(ADP-ribose) polymerase family member 6), the screen gave BNIP3L mRNA, set 1 = 0.0734; NDRG1 mRNA, set 1 = 0.95.
Knock-down of OSBP2 (oxysterol binding protein 2) gave: BNIP3L mRNA, set 1 = 0.0928; NDRG1 mRNA, set 1 = 0.318.
For NEURL1 (neuralized E3 ubiquitin protein ligase 1), the entry reads BNIP3L mRNA, set 1 = 0.0988; NDRG1 mRNA, set 1 = 0.0845.
With knock-down of SENP3 (SUMO specific peptidase 3) the results were BNIP3L mRNA, set 1 = 0.36; NDRG1 mRNA, set 1 = 0.83.
Against HNF4G (hepatocyte nuclear factor 4 gamma), the values are BNIP3L mRNA, set 1 = 0.0859; NDRG1 mRNA, set 1 = 0.151.
OR10A5 (olfactory receptor family 10 subfamily A member 5) gave BNIP3L mRNA, set 1 = 0.0787; NDRG1 mRNA, set 1 = 0.138.
